From the supplement of paper PMC10849652
The list shows a part of the results.

Amino acid sequences for entries named in this document (tags omitted). A change or cut given only in a name is not applied to a line headed by its entry.
UniProt O95825: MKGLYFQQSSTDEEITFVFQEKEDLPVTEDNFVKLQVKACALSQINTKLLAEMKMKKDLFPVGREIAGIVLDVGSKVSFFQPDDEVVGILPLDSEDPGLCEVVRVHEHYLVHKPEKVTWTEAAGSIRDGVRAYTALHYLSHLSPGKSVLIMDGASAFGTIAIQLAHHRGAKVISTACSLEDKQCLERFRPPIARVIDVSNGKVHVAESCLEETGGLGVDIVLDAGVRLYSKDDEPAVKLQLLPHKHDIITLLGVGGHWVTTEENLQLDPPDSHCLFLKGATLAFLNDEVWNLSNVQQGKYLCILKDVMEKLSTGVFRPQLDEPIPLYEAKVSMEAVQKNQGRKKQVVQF
UniProt P02511: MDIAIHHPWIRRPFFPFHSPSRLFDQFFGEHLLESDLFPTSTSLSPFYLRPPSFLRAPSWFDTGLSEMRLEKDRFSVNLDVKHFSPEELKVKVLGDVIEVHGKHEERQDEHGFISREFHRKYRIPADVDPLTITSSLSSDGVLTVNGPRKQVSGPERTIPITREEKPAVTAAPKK
UniProt Q13618, whole entry, looked up: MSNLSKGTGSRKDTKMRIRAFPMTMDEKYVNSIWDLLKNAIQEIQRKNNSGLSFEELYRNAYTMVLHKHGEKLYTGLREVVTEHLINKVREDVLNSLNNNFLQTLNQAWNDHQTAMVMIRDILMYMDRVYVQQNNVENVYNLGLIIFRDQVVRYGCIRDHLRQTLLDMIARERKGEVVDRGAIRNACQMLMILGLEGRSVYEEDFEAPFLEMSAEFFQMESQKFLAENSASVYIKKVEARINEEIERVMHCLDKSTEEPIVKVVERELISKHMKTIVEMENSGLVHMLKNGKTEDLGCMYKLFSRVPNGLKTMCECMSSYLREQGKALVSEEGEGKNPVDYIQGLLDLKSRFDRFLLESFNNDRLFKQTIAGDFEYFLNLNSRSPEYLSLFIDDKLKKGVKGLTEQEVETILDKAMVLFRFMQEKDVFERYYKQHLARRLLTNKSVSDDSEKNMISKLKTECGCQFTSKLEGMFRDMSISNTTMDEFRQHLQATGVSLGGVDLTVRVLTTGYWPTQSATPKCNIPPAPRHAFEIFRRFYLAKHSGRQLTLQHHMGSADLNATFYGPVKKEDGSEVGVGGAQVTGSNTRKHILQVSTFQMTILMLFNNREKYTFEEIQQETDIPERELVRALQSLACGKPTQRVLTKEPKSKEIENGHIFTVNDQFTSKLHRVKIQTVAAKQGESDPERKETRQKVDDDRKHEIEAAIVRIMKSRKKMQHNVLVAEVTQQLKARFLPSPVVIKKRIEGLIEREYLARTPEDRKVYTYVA
UniProt Q9P0U4, whole entry, looked up: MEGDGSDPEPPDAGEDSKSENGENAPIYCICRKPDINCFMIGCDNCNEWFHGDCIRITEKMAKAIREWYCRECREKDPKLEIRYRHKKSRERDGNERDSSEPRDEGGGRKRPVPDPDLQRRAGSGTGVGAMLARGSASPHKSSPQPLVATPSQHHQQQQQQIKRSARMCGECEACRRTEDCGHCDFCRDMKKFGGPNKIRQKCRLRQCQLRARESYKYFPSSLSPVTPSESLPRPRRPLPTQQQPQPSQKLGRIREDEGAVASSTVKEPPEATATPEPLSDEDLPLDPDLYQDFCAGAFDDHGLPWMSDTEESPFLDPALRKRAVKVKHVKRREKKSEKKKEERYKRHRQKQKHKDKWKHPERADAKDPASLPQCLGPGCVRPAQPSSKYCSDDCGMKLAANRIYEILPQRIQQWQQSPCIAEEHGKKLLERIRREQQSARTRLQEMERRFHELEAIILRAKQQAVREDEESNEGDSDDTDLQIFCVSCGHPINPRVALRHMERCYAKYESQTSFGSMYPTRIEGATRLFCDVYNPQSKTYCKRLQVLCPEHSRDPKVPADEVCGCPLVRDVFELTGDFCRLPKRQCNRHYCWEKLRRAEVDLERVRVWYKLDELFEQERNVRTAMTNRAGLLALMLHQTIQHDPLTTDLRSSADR
UniProt Q6UW02: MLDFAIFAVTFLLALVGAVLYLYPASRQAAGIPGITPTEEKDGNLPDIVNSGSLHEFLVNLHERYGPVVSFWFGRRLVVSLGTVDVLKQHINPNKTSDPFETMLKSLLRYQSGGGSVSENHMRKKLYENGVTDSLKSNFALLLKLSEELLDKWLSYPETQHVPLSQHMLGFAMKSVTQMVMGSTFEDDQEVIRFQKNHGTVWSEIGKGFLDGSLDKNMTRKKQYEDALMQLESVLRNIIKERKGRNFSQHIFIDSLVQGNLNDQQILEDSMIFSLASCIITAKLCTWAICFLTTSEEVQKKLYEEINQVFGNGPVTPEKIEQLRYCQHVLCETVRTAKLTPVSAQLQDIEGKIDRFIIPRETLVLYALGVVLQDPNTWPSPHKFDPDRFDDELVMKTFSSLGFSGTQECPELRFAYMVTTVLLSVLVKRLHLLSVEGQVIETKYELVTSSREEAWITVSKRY
UniProt P0DMU9: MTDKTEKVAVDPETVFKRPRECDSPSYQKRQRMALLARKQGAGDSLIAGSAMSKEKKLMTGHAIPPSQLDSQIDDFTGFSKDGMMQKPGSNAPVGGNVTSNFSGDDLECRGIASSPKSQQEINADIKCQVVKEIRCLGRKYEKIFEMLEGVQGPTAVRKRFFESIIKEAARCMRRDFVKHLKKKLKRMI
UniProt Q8WYA6: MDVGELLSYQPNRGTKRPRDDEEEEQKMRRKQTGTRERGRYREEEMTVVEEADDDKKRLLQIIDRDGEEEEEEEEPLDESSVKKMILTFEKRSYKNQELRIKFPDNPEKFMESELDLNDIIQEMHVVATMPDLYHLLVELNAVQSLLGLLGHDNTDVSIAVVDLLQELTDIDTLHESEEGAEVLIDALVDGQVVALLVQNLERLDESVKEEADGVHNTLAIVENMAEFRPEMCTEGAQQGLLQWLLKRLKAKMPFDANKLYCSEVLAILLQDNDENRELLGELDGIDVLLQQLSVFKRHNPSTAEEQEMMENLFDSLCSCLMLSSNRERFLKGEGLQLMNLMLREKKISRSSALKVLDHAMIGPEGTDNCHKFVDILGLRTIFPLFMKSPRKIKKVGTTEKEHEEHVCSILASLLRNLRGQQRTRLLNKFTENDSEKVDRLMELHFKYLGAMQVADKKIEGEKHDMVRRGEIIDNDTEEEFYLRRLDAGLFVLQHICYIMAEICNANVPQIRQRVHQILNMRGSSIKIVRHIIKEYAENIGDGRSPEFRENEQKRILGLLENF
UniProt Q1MSJ5: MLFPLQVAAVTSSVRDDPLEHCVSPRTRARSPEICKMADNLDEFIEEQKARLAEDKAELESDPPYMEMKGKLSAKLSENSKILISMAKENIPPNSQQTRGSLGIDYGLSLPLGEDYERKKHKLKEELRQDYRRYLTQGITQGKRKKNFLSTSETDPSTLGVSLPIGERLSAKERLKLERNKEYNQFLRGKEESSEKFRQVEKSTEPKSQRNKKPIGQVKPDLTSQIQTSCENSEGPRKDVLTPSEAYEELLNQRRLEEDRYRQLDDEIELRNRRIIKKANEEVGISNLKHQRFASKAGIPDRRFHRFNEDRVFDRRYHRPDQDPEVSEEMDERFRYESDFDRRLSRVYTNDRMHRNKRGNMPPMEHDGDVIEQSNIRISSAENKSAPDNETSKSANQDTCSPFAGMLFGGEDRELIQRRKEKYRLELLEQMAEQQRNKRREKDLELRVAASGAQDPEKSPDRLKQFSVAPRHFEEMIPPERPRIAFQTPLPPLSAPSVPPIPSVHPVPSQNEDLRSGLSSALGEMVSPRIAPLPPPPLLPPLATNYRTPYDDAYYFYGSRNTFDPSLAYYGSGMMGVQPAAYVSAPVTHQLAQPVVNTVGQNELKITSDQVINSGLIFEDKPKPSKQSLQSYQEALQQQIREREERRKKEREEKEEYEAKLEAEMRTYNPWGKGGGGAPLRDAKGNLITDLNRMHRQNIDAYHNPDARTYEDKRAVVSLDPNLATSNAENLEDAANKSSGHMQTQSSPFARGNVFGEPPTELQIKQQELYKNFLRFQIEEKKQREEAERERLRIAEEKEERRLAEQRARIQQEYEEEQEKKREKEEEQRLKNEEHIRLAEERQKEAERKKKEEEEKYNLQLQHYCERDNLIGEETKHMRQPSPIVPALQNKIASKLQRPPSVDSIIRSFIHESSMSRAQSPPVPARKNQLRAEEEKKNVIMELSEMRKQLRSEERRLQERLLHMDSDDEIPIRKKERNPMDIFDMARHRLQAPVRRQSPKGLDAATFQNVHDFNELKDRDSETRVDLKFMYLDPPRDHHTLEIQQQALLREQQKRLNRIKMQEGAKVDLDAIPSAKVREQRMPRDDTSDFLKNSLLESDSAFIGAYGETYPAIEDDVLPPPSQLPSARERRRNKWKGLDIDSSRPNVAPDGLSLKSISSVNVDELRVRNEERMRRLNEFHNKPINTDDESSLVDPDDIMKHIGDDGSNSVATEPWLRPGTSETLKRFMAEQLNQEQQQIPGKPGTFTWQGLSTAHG
UniProt P53634: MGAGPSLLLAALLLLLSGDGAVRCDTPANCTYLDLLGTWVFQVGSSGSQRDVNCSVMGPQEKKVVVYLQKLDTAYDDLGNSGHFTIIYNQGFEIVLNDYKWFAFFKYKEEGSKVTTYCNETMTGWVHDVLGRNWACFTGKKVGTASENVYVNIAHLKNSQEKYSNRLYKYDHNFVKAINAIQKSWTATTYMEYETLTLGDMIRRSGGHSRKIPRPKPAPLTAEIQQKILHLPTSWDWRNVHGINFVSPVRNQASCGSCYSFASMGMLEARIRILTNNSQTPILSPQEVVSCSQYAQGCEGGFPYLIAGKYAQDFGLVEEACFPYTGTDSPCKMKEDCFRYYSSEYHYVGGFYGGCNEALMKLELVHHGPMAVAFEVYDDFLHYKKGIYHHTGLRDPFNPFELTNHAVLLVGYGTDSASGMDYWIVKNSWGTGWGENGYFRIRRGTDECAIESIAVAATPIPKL
UniProt P68400, whole entry, looked up: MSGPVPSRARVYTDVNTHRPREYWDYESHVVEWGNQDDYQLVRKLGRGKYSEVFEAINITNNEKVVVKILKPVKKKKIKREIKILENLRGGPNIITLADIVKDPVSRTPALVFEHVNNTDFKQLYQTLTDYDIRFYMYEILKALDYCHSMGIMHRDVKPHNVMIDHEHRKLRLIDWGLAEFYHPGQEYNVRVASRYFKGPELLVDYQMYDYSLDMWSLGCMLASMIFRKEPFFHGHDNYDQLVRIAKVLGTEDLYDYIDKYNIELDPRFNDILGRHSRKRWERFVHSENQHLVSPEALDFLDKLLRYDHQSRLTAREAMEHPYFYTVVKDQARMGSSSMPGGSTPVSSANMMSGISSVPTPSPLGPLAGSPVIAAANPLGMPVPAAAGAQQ
UniProt P35221: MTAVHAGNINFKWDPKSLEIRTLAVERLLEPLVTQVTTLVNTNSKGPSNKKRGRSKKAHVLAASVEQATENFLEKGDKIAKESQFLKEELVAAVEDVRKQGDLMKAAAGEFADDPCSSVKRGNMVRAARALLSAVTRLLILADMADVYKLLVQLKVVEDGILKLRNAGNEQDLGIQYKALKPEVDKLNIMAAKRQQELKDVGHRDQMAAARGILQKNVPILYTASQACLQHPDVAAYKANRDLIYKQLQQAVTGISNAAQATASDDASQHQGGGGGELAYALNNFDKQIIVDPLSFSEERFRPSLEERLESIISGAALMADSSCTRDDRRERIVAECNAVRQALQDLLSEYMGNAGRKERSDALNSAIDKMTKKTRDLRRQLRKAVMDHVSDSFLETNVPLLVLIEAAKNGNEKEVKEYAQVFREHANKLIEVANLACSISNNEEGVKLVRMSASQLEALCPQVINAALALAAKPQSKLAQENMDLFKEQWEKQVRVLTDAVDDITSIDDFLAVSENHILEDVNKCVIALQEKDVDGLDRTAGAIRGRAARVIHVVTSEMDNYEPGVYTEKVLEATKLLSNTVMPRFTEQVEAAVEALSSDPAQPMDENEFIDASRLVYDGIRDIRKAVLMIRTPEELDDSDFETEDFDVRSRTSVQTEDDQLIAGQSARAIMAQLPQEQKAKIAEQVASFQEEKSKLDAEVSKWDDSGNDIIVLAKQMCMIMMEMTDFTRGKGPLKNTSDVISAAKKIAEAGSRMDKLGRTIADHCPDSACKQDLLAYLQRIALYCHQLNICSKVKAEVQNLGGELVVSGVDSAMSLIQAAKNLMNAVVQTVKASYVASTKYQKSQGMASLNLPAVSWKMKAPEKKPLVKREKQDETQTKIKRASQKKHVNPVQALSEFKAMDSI
UniProt P00387: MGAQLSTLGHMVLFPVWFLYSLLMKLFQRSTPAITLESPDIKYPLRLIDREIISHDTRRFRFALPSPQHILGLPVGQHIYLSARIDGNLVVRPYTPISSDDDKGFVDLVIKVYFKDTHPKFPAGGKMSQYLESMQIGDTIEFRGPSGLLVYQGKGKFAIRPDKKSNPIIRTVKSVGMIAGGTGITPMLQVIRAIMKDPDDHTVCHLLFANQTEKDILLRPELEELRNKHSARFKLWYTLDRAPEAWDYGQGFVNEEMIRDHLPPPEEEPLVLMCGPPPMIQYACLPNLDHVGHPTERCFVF

Assays:
Assay in all cases: log2 fold change, soluble protein after heating vs DMSO (PISA); higher = thermal stabilisation; K562 lysate, 10 uM; active = over 0.2 and 3.5 SD of the protein, either way, in both replicates (recomputed)
lapatinib = compound: CS(=O)(=O)CCNCc1ccc(-c2ccc3ncnc(Nc4ccc(OCc5cccc(F)c5)c(Cl)c4)c3c2)o1 [lapatinib]
Summary of the method: (§1)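 Thermal stability, expressed as log-two fold change relative to solvent controls, is given from duplicates. Crude K562 extract in PBS pH 7.4 with 1 mM MgCl2, at 1 mg/mL protein, was treated with 10 μM compound for 30 min and heated in aliquots for 3 min across 48°C-58°C. After pooling, adjustment to 0.5% NP-40 at 4°C and centrifugation at 21,000xg for 90 min, supernatant protein was measured by TMTpro 16plex LC-MS/MS with channel sums equalised.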

pictilisib = compound: CS(=O)(=O)N1CCN(Cc2cc3nc(-c4cccc5[nH]ncc45)nc(N4CCOCC4)c3s2)CC1 [pictilisib]
Summary of the method: as §1

crizotinib = compound: C[C@@H](Oc1cc(-c2cnn(C3CCNCC3)c2)cnc1N)c1c(Cl)ccc(F)c1Cl [crizotinib]
Summary of the method: as §1

[1] = compound: C[C@H](C1=CC=C(C=C1)C(=O)NC2=C3C=CNC3=NC=C2)N
Summary of the method: as §1

duvelisib = compound: C[C@H](Nc1ncnc2nc[nH]c12)c1cc2cccc(Cl)c2c(=O)n1-c1ccccc1 [duvelisib]
Summary of the method: as §1

gandotinib = compound: Cc1cc(Nc2cc(CN3CCOCC3)c3nc(C)c(Cc4ccc(Cl)cc4F)n3n2)n[nH]1 [gandotinib]
Summary of the method: as §1

tozasertib = compound: Cc1cc(Nc2cc(N3CCN(C)CC3)nc(Sc3ccc(NC(=O)C4CC4)cc3)n2)n[nH]1 [tozasertib]
Summary of the method: as §1

doramapimod = compound: Cc1ccc(-n2nc(C(C)(C)C)cc2NC(=O)Nc2ccc(OCCN3CCOCC3)c3ccccc23)cc1 [doramapimod]
Summary of the method: as §1

bafetinib = compound: Cc1ccc(NC(=O)c2ccc(CN3CC[C@H](N(C)C)C3)c(C(F)(F)F)c2)cc1Nc1nccc(-c2cncnc2)n1 [bafetinib]
Summary of the method: as §1

[2] = compound: Cc1cccc(CC(=O)N2CCc3c2ccc(-c2cn(C)c4ncnc(N)c24)c3F)n1
Summary of the method: as §1

nilotinib = compound: Cc1cn(-c2cc(NC(=O)c3ccc(C)c(Nc4nccc(-c5cccnc5)n4)c3)cc(C(F)(F)F)c2)cn1 [nilotinib]
Summary of the method: as §1

[3] = compound: Cc1nc(Nc2n[nH]c3c2CN(C(=O)N[C@H](CN(C)C)c2ccccc2)C3(C)C)c2sccc2n1
Summary of the method: as §1

dasatinib = compound: Cc1nc(Nc2ncc(C(=O)Nc3c(C)cccc3Cl)s2)cc(N2CCN(CCO)CC2)n1 [dasatinib]
Summary of the method: as §1

[4] = compound: Cc1ncc(-c2ccnc(Nc3ccc(S(C)(=O)=O)cc3)n2)n1C(C)C
Summary of the method: as §1

[5] = compound: Cn1cc(-c2ccc3c(c2)CCN3C(=O)Cc2cccc(C(F)(F)F)c2)c2c(N)ncnc21
Summary of the method: as §1

quisinostat = compound: Cn1cc(CNCC2CCN(c3ncc(C(=O)NO)cn3)CC2)c2ccccc21 [quisinostat]
Summary of the method: as §1

tipifarnib = compound: Cn1cncc1[C@@](N)(c1ccc(Cl)cc1)c1ccc2c(c1)c(-c1cccc(Cl)c1)cc(=O)n2C [tipifarnib]
Summary of the method: as §1

[6] = compound: NC(=O)Nc1cc(-c2cccc(F)c2)sc1C(=O)N[C@H]1CCCNC1
Summary of the method: as §1

[7] = compound: NC(=O)c1cnc(N[C@@H]2CCCC[C@@H]2N)nc1Nc1cccc(-n2nccn2)c1
Summary of the method: as §1

[8] = compound: NC1(c2ccc(-c3nc4ccn5c(=O)[nH]nc5c4cc3-c3ccccc3)cc2)CCC1
Summary of the method: as §1

Measured: log2 fold change

CYHR1 (UniProt E9PJD7)
inactive: lapatinib 0.005 | pictilisib 0.008 | crizotinib -0.143 | [1] 0.005 | duvelisib -0.039 | gandotinib -0.005 | tozasertib 0.035 | doramapimod -0.012 | bafetinib 0.052 | [2] -0.03 | nilotinib 0.008 | [3] 0.003 | dasatinib 0.073 | [4] 0.002 | [5] 0.032 | quisinostat 0.012 | tipifarnib -0.022 | [6] 0.054 | [7] -0.027 | [8] -0.042

CRYZL1 (UniProt O95825)
inactive: lapatinib -0.021 | pictilisib -0.032 | crizotinib 0.016 | [1] -0.033 | duvelisib 0.029 | gandotinib 0.057 | tozasertib 0.081 | doramapimod -0.001 | bafetinib 0.008 | [2] 0.019 | nilotinib -0.006 | [3] 0.022 | dasatinib 0.021 | [4] 0.015 | [5] -0.028 | quisinostat 0.006 | tipifarnib -0.006 | [6] 0.039 | [7] -0.021 | [8] -0.032

CUL1 (UniProt Q13616)
inactive: lapatinib -0.007 | pictilisib 0.004 | crizotinib 0.014 | [1] -0.007 | duvelisib 0.015 | gandotinib 0.03 | tozasertib -0.001 | doramapimod 0.01 | bafetinib 0.03 | [2] -0.002 | nilotinib 0.025 | [3] 0.022 | dasatinib 0.034 | [4] 0.028 | [5] 0.027 | quisinostat 0.017 | tipifarnib 0.001 | [6] -0.021 | [7] -0.011 | [8] -0.004

CRYAB (UniProt P02511)
inactive: lapatinib -0.078 | pictilisib -0.037 | crizotinib -0.159 | [1] -0.006 | duvelisib 0.011 | gandotinib 0.192 | tozasertib -0.075 | doramapimod 0 | bafetinib 0.129 | [2] 0.082 | nilotinib 0.096 | [3] 0.007 | dasatinib 0.062 | [4] -0.023 | [5] -0.045 | quisinostat -0.331 | tipifarnib 0.162 | [6] 0.079 | [7] -0.113 | [8] -0.232

CSTF3 (UniProt Q12996)
inactive: lapatinib 0.002 | pictilisib -0.037 | crizotinib -0.032 | [1] 0.022 | duvelisib -0.018 | gandotinib -0.086 | tozasertib 0.025 | doramapimod 0.028 | bafetinib -0.044 | [2] -0.028 | nilotinib -0.026 | [3] -0.014 | dasatinib -0.03 | [4] -0.027 | [5] 0.031 | quisinostat -0.021 | tipifarnib -0.006 | [6] -0.002 | [7] 0.001 | [8] 0.021

CUL3 (UniProt Q13618)
inactive: lapatinib -0.02 | pictilisib -0.02 | crizotinib 0.006 | [1] -0.005 | duvelisib 0.012 | gandotinib -0.04 | tozasertib 0.027 | doramapimod -0.012 | bafetinib -0.004 | [2] 0.039 | nilotinib -0.014 | [3] 0.011 | dasatinib 0.009 | [4] -0.01 | [5] 0.005 | quisinostat 0.007 | tipifarnib 0.036 | [6] -0.015 | [7] 0.011 | [8] 0.005

CSNK2B (UniProt P67870)
inactive: lapatinib -0.052 | pictilisib 0.023 | crizotinib -0.073 | [1] 0.027 | duvelisib -0.053 | gandotinib 0.016 | tozasertib 0.004 | doramapimod 0.022 | bafetinib 0.064 | [2] -0.05 | nilotinib 0.086 | [3] -0.029 | dasatinib -0.014 | [4] 0.034 | [5] -0.006 | quisinostat -0.005 | tipifarnib -0.058 | [6] 0.028 | [7] 0.042 | [8] -0.049

CXXC1 isoform 2 (UniProt Q9P0U4)
inactive: lapatinib -0.024 | pictilisib 0.107 | crizotinib -0.089 | [1] 0.058 | duvelisib 0.154 | gandotinib -0.046 | tozasertib -0.028 | doramapimod 0.018 | bafetinib -0.047 | [2] 0.005 | nilotinib 0.032 | [3] 0.029 | dasatinib -0.504 | [4] 0.026 | [5] -0.191 | quisinostat -0.159 | tipifarnib -0.039 | [6] -0.013 | [7] -0.021 | [8] 0.082

CYP20A1 (UniProt Q6UW02)
inactive: lapatinib -0.04 | pictilisib -0.013 | crizotinib -0.011 | [1] -0.048 | duvelisib -0.043 | gandotinib -0.051 | tozasertib 0.023 | doramapimod 0.015 | bafetinib -0.018 | [2] 0.009 | nilotinib 0.035 | [3] -0.071 | dasatinib 0.007 | [4] -0.013 | [5] 0 | quisinostat 0.018 | tipifarnib 0.001 | [6] -0.039 | [7] 0.023 | [8] 0.015

CT45A10 (UniProt P0DMU9)
inactive: lapatinib 0.006 | pictilisib 0.003 | crizotinib 0.098 | [1] 0.043 | duvelisib -0.007 | gandotinib -0.033 | tozasertib 0.011 | doramapimod -0.027 | bafetinib -0.011 | [2] -0.021 | nilotinib -0.004 | [3] 0.022 | dasatinib 0.014 | [4] -0.059 | [5] 0.024 | quisinostat 0.049 | tipifarnib -0.028 | [6] -0.02 | [7] -0.012 | [8] 0.014

CTNNBL1 (UniProt Q8WYA6)
inactive: lapatinib 0 | pictilisib -0.011 | crizotinib -0.032 | [1] 0.015 | duvelisib 0 | gandotinib -0.058 | tozasertib 0.033 | doramapimod 0.058 | bafetinib -0.103 | [2] 0.043 | nilotinib -0.034 | [3] 0.02 | dasatinib 0.025 | [4] -0.013 | [5] -0.065 | quisinostat -0.008 | tipifarnib -0.019 | [6] 0.02 | [7] 0.011 | [8] -0.138

CSPP1 (UniProt Q1MSJ5)
inactive: lapatinib -0.103 | pictilisib -0.176 | crizotinib 0.013 | [1] 0.031 | duvelisib -0.089 | gandotinib 0.056 | tozasertib -0.04 | doramapimod 0.018 | bafetinib -0.013 | [2] -0.002 | nilotinib -0.105 | [3] -0.014 | dasatinib 0.046 | [4] 0.011 | [5] -0.062 | quisinostat 0.026 | tipifarnib 0.078 | [6] 0.015 | [7] -0.227 | [8] 0.011

CTSC (UniProt P53634)
inactive: lapatinib -0.023 | pictilisib -0.017 | crizotinib 0.018 | [1] -0.16 | duvelisib 0.037 | gandotinib 0.047 | tozasertib -0.021 | doramapimod 0.031 | bafetinib 0.004 | [2] 0.104 | nilotinib -0.031 | [3] -0.034 | dasatinib 0.038 | [4] 0 | [5] -0.007 | quisinostat -0.064 | tipifarnib 0.011 | [6] -0.018 | [7] -0.009 | [8] 0.015

CSNK2A1 (UniProt P68400)
inactive: lapatinib -0.038 | pictilisib 0.016 | crizotinib 0.007 | [1] -0.021 | duvelisib -0.002 | gandotinib -0.007 | tozasertib -0.006 | doramapimod -0.003 | bafetinib 0.027 | [2] -0.018 | nilotinib -0.022 | [3] 0.061 | dasatinib 0 | [4] 0.058 | [5] -0.029 | quisinostat 0.049 | tipifarnib -0.013 | [6] 0.019 | [7] 0.003 | [8] -0.068

CTNNA1 (UniProt P35221)
inactive: lapatinib -0.021 | pictilisib -0.007 | crizotinib -0.033 | [1] -0.039 | duvelisib 0.02 | gandotinib 0.064 | tozasertib 0 | doramapimod 0.015 | bafetinib -0.015 | [2] 0.019 | nilotinib -0.043 | [3] 0.006 | dasatinib 0.021 | [4] -0.001 | [5] -0.013 | quisinostat -0.076 | tipifarnib -0.017 | [6] -0.003 | [7] -0.009 | [8] 0.005

CYB5R3 isoform 3 (UniProt P00387)
inactive: lapatinib 0.031 | pictilisib -0.021 | crizotinib -0.008 | [1] -0.013 | duvelisib -0.003 | gandotinib -0.035 | tozasertib 0.047 | doramapimod 0.062 | bafetinib -0.017 | [2] -0.026 | nilotinib -0.017 | [3] -0.006 | dasatinib -0.023 | [4] 0.027 | [5] -0.012 | quisinostat -0.061 | tipifarnib -0.005 | [6] 0.026 | [7] -0.013 | [8] -0.006
